{"source": "the supplement of paper PMC12067093", "about": "“Discovery and optimisation of a covalent ligand for TRIM25 and its application to targeted protein ubiquitination” (Chemical Science, 2025)", "note": "Some of the results follow.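 Note: competitive profiling in live THP-1 cells: cysteine peptides tagged with an iodoacetamide desthiobiotin (IA-DTB) probe, intensity after compound treatment relative to DMSO-treated cells.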", "data": [{"compound": "Cc1cc(ccc1-c1ccccc1)C(=O)N1CCCN(CC1)C(=O)CCl [compound 10]", "assay": "probe-labelled cysteine peptide fold change vs DMSO (competition) (log2 fold change); higher = less target engagement (more negative = stronger competition)", "settings": "10 µM; THP-1; incubation time: 4 h", "values": [{"target": "MYO6_Q9UM54_1236_QMELHPDKPPILLVAGKDDMEMCELNLEETGLTR (UniProt Q9UM54)", "probe-labelled cysteine peptide fold change": -0.327}, {"target": "NANS_Q9NR45_8_PLELELCPGR (UniProt Q9NR45)", "probe-labelled cysteine peptide fold change": 0.115}, {"target": "NAA40_Q86UY6_26_AAMDAVCAK (UniProt Q86UY6)", "probe-labelled cysteine peptide fold change": -0.131}, {"target": "NADSYN1_Q6IA69_627_HICTPR (UniProt Q6IA69)", "probe-labelled cysteine peptide fold change": -0.683}, {"target": "NCAPD2_Q15021_596_ESTGNMVTGQTVCK (UniProt Q15021)", "probe-labelled cysteine peptide fold change": -0.274}, {"target": "NAPA_P54920_103_ADPQEAINCLMR (UniProt P54920)", "probe-labelled cysteine peptide fold change": 0.18}, {"target": "NAT1_P18440_44_AVPFENLNIHCGDAMDLGLEAIFDQVVRR (UniProt P18440)", "probe-labelled cysteine peptide fold change": -0.215}, {"target": "NAGK_Q9UJ70_268_IGLPILCVGSVWK (UniProt Q9UJ70)", "probe-labelled cysteine peptide fold change": -0.159}, {"target": "NCAPG_Q9BPX3_177_LQDPKDDECPVVNAYATLIENDSNPEVR (UniProt Q9BPX3)", "probe-labelled cysteine peptide fold change": -0.282}, {"target": "MYO6_Q9UM54_514_EGLGVNEVHYVDNQDCIDLIEAK (UniProt Q9UM54)", "probe-labelled cysteine peptide fold change": -0.0692}, {"target": "MYO6_Q9UM54_1102_DTINTSCDIELLAACREEFHR (UniProt Q9UM54)", "probe-labelled cysteine peptide fold change": -0.173}, {"target": "NCAM1_P13591_96_CVVTGEDGSESEATVNVK (UniProt P13591)", "probe-labelled cysteine peptide fold change": -0.282}, {"target": "NASP_P49321_568_LGEVSVESENYVQAVEEFQSCLNLQEQYLEAHDR (UniProt P49321)", "probe-labelled cysteine peptide fold change": 0.0149}, {"target": "NAP1L4_Q99733_250_ADPFSFEGPEIVDCDGCTIDWK (UniProt Q99733)", "probe-labelled cysteine peptide fold change": 0.205}, {"target": "MYO9B_Q13459_34_REQAAYHLHIYPQLSTTESQASCR (UniProt Q13459)", "probe-labelled cysteine peptide fold change": 0.0275}, {"target": "NAP1L4_Q99733_247_ADPFSFEGPEIVDCDGCTIDWKK (UniProt Q99733)", "probe-labelled cysteine peptide fold change": 0.089}, {"target": "NAE1_Q13564_460_SCLTGFLQEYGLSVMVK (UniProt Q13564)", "probe-labelled cysteine peptide fold change": 0.161}, {"target": "NCAPH2_Q6IBW4_535_FPQLNEWCPFAELVAGQPAFEVCR (UniProt Q6IBW4)", "probe-labelled cysteine peptide fold change": -0.239}, {"target": "MYO18A_Q92614_604_RPASEATFNVFYYLLACGDGTLR (UniProt Q92614)", "probe-labelled cysteine peptide fold change": 0.123}, {"target": "NCAM2_O15394_136_QGEDAEVVCR (UniProt O15394)", "probe-labelled cysteine peptide fold change": -0.288}, {"target": "MYOF_Q9NZM1_409_KVCTNIIEK (UniProt Q9NZM1)", "probe-labelled cysteine peptide fold change": -0.176}, {"target": "NAXE_Q8NCW5_158_RPNKPLFTALVTQCQK (UniProt Q8NCW5)", "probe-labelled cysteine peptide fold change": -0.0701}, {"target": "NAA16_Q6N069_221_QICDKLLVEEIK (UniProt Q6N069)", "probe-labelled cysteine peptide fold change": 0.143}, {"target": "NCAPG2_Q86XI2_776_NRECLLSAPR (UniProt Q86XI2)", "probe-labelled cysteine peptide fold change": -0.149}, {"target": "NAPRT_Q6XQN6_484_LCLQQGQLCEPLPSLAESR (UniProt Q6XQN6)", "probe-labelled cysteine peptide fold change": 0.0212}, {"target": "NAXE_Q8NCW5_127_SPPTVLVICGPGNNGGDGLVCAR (UniProt Q8NCW5)", "probe-labelled cysteine peptide fold change": 0.093}, {"target": "NBEAL2_Q6ZNJ1_142_GTQLENVALHALLLCEGLFDPYQTWR (UniProt Q6ZNJ1)", "probe-labelled cysteine peptide fold change": 0.147}, {"target": "MYO1G_B0I1T2_979_VSDCIPLSHR (UniProt B0I1T2)", "probe-labelled cysteine peptide fold change": 0.044}, {"target": "NARS_O43776_511_YGTCPHGGYGLGLER (UniProt O43776)", "probe-labelled cysteine peptide fold change": -0.508}, {"target": "NAA50_Q9GZZ1_79_LYIMTLGCLAPYR (UniProt Q9GZZ1)", "probe-labelled cysteine peptide fold change": -0.029}, {"target": "NCAPD2_Q15021_421_SVLVCK (UniProt Q15021)", "probe-labelled cysteine peptide fold change": -0.117}, {"target": "NAGA_P17050_42_CNINCDEDPK (UniProt P17050)", "probe-labelled cysteine peptide fold change": -0.0306}, {"target": "NCBP1_Q09161_231_PHPQEEYLDCLWAQIQK (UniProt Q09161)", "probe-labelled cysteine peptide fold change": 0.118}, {"target": "NAA10_P41227_194_GNSPPSSGEACR (UniProt P41227)", "probe-labelled cysteine peptide fold change": 0.00916}, {"target": "NCAPD3_P42695_867_YIFTLGDIAQLCPAR (UniProt P42695)", "probe-labelled cysteine peptide fold change": 0.0523}, {"target": "NAA80_Q93015_104_LHSLGQSSDAFPLCLMLLSPHPTLEAAPVVVGHAR (UniProt Q93015)", "probe-labelled cysteine peptide fold change": 0.114}, {"target": "NAPRT_Q6XQN6_533_LQALVNSLCAGQSP (UniProt Q6XQN6)", "probe-labelled cysteine peptide fold change": -0.129}, {"target": "NBR1_Q14596_433_DVLVPCLK (UniProt Q14596)", "probe-labelled cysteine peptide fold change": 0.0253}]}, {"compound": "Cc1cc(ccc1-c1ccccc1)C(=O)N1CCCN(CC1)C(=O)CCl [compound 10]", "assay": "probe-labelled cysteine peptide fold change vs DMSO (competition) (log2 fold change); higher = less target engagement (more negative = stronger competition)", "settings": "50 µM; THP-1; incubation time: 4 h", "values": [{"target": "MYO6_Q9UM54_1236_QMELHPDKPPILLVAGKDDMEMCELNLEETGLTR (UniProt Q9UM54)", "probe-labelled cysteine peptide fold change": -0.191}, {"target": "NANS_Q9NR45_8_PLELELCPGR (UniProt Q9NR45)", "probe-labelled cysteine peptide fold change": -0.239}, {"target": "NAA40_Q86UY6_26_AAMDAVCAK (UniProt Q86UY6)", "probe-labelled cysteine peptide fold change": -0.236}, {"target": "NADSYN1_Q6IA69_627_HICTPR (UniProt Q6IA69)", "probe-labelled cysteine peptide fold change": 0.168}, {"target": "NCAPD2_Q15021_596_ESTGNMVTGQTVCK (UniProt Q15021)", "probe-labelled cysteine peptide fold change": -0.688}, {"target": "NAPA_P54920_103_ADPQEAINCLMR (UniProt P54920)", "probe-labelled cysteine peptide fold change": 0.215}, {"target": "NAT1_P18440_44_AVPFENLNIHCGDAMDLGLEAIFDQVVRR (UniProt P18440)", "probe-labelled cysteine peptide fold change": -0.728}, {"target": "NAGK_Q9UJ70_268_IGLPILCVGSVWK (UniProt Q9UJ70)", "probe-labelled cysteine peptide fold change": 0.652}, {"target": "NCAPG_Q9BPX3_177_LQDPKDDECPVVNAYATLIENDSNPEVR (UniProt Q9BPX3)", "probe-labelled cysteine peptide fold change": 0.398}, {"target": "MYO6_Q9UM54_514_EGLGVNEVHYVDNQDCIDLIEAK (UniProt Q9UM54)", "probe-labelled cysteine peptide fold change": 0.0844}, {"target": "MYO6_Q9UM54_1102_DTINTSCDIELLAACREEFHR (UniProt Q9UM54)", "probe-labelled cysteine peptide fold change": -0.382}, {"target": "NCAM1_P13591_96_CVVTGEDGSESEATVNVK (UniProt P13591)", "probe-labelled cysteine peptide fold change": 0.0411}, {"target": "NASP_P49321_568_LGEVSVESENYVQAVEEFQSCLNLQEQYLEAHDR (UniProt P49321)", "probe-labelled cysteine peptide fold change": 0.425}, {"target": "NAP1L4_Q99733_250_ADPFSFEGPEIVDCDGCTIDWK (UniProt Q99733)", "probe-labelled cysteine peptide fold change": 0.326}, {"target": "MYO9B_Q13459_34_REQAAYHLHIYPQLSTTESQASCR (UniProt Q13459)", "probe-labelled cysteine peptide fold change": -0.183}, {"target": "NAP1L4_Q99733_247_ADPFSFEGPEIVDCDGCTIDWKK (UniProt Q99733)", "probe-labelled cysteine peptide fold change": 0.0132}, {"target": "NAE1_Q13564_460_SCLTGFLQEYGLSVMVK (UniProt Q13564)", "probe-labelled cysteine peptide fold change": 0.442}, {"target": "NCAPH2_Q6IBW4_535_FPQLNEWCPFAELVAGQPAFEVCR (UniProt Q6IBW4)", "probe-labelled cysteine peptide fold change": 0.00304}, {"target": "MYO18A_Q92614_604_RPASEATFNVFYYLLACGDGTLR (UniProt Q92614)", "probe-labelled cysteine peptide fold change": 0.668}, {"target": "NCAM2_O15394_136_QGEDAEVVCR (UniProt O15394)", "probe-labelled cysteine peptide fold change": -0.0604}, {"target": "MYOF_Q9NZM1_409_KVCTNIIEK (UniProt Q9NZM1)", "probe-labelled cysteine peptide fold change": -0.0115}, {"target": "NAXE_Q8NCW5_158_RPNKPLFTALVTQCQK (UniProt Q8NCW5)", "probe-labelled cysteine peptide fold change": -0.187}, {"target": "NAA16_Q6N069_221_QICDKLLVEEIK (UniProt Q6N069)", "probe-labelled cysteine peptide fold change": -0.793}, {"target": "NCAPG2_Q86XI2_776_NRECLLSAPR (UniProt Q86XI2)", "probe-labelled cysteine peptide fold change": -0.347}, {"target": "NAPRT_Q6XQN6_484_LCLQQGQLCEPLPSLAESR (UniProt Q6XQN6)", "probe-labelled cysteine peptide fold change": 0.0213}, {"target": "NAXE_Q8NCW5_127_SPPTVLVICGPGNNGGDGLVCAR (UniProt Q8NCW5)", "probe-labelled cysteine peptide fold change": 0.383}, {"target": "NBEAL2_Q6ZNJ1_142_GTQLENVALHALLLCEGLFDPYQTWR (UniProt Q6ZNJ1)", "probe-labelled cysteine peptide fold change": 0.105}, {"target": "MYO1G_B0I1T2_979_VSDCIPLSHR (UniProt B0I1T2)", "probe-labelled cysteine peptide fold change": 0.618}, {"target": "NARS_O43776_511_YGTCPHGGYGLGLER (UniProt O43776)", "probe-labelled cysteine peptide fold change": 0.139}, {"target": "NAA50_Q9GZZ1_79_LYIMTLGCLAPYR (UniProt Q9GZZ1)", "probe-labelled cysteine peptide fold change": 0.141}, {"target": "NCAPD2_Q15021_421_SVLVCK (UniProt Q15021)", "probe-labelled cysteine peptide fold change": 0.162}, {"target": "NAGA_P17050_42_CNINCDEDPK (UniProt P17050)", "probe-labelled cysteine peptide fold change": 0.15}, {"target": "NCBP1_Q09161_231_PHPQEEYLDCLWAQIQK (UniProt Q09161)", "probe-labelled cysteine peptide fold change": 0.343}, {"target": "NAA10_P41227_194_GNSPPSSGEACR (UniProt P41227)", "probe-labelled cysteine peptide fold change": 0.0825}, {"target": "NCAPD3_P42695_867_YIFTLGDIAQLCPAR (UniProt P42695)", "probe-labelled cysteine peptide fold change": 0.0129}, {"target": "NAA80_Q93015_104_LHSLGQSSDAFPLCLMLLSPHPTLEAAPVVVGHAR (UniProt Q93015)", "probe-labelled cysteine peptide fold change": -0.122}, {"target": "NAPRT_Q6XQN6_533_LQALVNSLCAGQSP (UniProt Q6XQN6)", "probe-labelled cysteine peptide fold change": 0.0286}, {"target": "NBR1_Q14596_433_DVLVPCLK (UniProt Q14596)", "probe-labelled cysteine peptide fold change": -0.0476}]}]}
